# Experimental data from patent US9790245B2 (Vanderbilt University, priority 2014, dated 2017).
# Key:
# [1] = Low-field (ex situ) 1H SABRE hyperpolarization of nicotinamide with Ir-IMes catalyst, detected at 9.4 T; conditions: SABRE at 6 ± 4 mT
# [2] = 15N SABRE-SHEATH hyperpolarization of neat liquids with Ir catalyst; conditions: for ^15N T1 9.4 T / ^15N effective T1 μT / ^15N ε @ 9.4 T (SABRE-SHEATH signal enhancement): ~90 mM catalyst; for ^15N effective T1 μT: microTesla field of the shield; for ^15N ε @ 9.4 T (SABRE-SHEATH signal enhancement): neat liquid, listed as 1 >90% para-H2, other rows 65-75% para-H2
# [3] = 1H SABRE hyperpolarization of neat pyridines at 6 mT, detected at 9.4 T; conditions: SABRE at ~6 mT, ortho-1H, ~90 mM catalyst
# [4] = listed as natural abundance (n.a.) Py
smiles,measurement,setting,value
NC(=O)c1cccnc1 [Nicotinamide],"Integral polarization enhancement, Ha",[1]; D2O (100%),−33.29
same,"Integral polarization enhancement, Hb",[1]; D2O (100%),−29.52
same,"Integral polarization enhancement, Hc",[1]; D2O (100%),−23.95
same,"Integral polarization enhancement, Hd",[1]; D2O (100%),−11.04
same,"Integral polarization enhancement, Ha","[1]; Ethanol-d6 (33%), D2O (67%)",−56.28
same,"Integral polarization enhancement, Hb","[1]; Ethanol-d6 (33%), D2O (67%)",−42.55
same,"Integral polarization enhancement, Hc","[1]; Ethanol-d6 (33%), D2O (67%)",−33.26
same,"Integral polarization enhancement, Hd","[1]; Ethanol-d6 (33%), D2O (67%)",10.00
same,"Integral polarization enhancement, Ha","[1]; Ethanol-d6 (50%), D2O (50%)",−74.06
same,"Integral polarization enhancement, Hb","[1]; Ethanol-d6 (50%), D2O (50%)",−54.75
same,"Integral polarization enhancement, Hc","[1]; Ethanol-d6 (50%), D2O (50%)",−40.01
same,"Integral polarization enhancement, Hd","[1]; Ethanol-d6 (50%), D2O (50%)",9.27
same,"Integral polarization enhancement, Ha",[1]; Ethanol-d6 (100%),−88.11
same,"Integral polarization enhancement, Hb",[1]; Ethanol-d6 (100%),−71.16
same,"Integral polarization enhancement, Hc",[1]; Ethanol-d6 (100%),−64.67
same,"Integral polarization enhancement, Hd",[1]; Ethanol-d6 (100%),9.05
"c1ccncc1 [Py (n.a.), pyridine]",^15N T1 9.4 T,[2],60.8(0.6) s
same,^15N ε greater in n.a. Py with respect to ^15N-Py,[2]; limited access to para-H2,88 fold
same,^15N effective T1 μT,[2],5.5(0.5) s
same,^15N effective T1 μT,[2]; listed as n.a. Py,5.5 ± 0.5 s
same,^15N ε @ 9.4 T (SABRE-SHEATH signal enhancement),[2],~−2900
same,^15N ε @ 9.4 T (SABRE-SHEATH signal enhancement),[2]; [4],up to 2900
same,P^15N (15N polarization),"[2]; neat n.a. Py, SABRE-SHEATH",≈ 1%
same,^1H ε @ 9.4 T (1H SABRE signal enhancement),[3],~−4.2
same,^1H ε @ 9.4 T (1H SABRE signal enhancement),[3]; [4],≈ 4
c1ccncc1 [Py-d5 (99.5% d)],^15N T1 9.4 T,[2],74.3(2.9) s
same,^15N effective T1 μT,[2],2.2(0.1) s
same,^15N effective T1 μT,[2]; listed as Py-d5,2.2 ± 0.1 s
same,^15N ε @ 9.4 T (SABRE-SHEATH signal enhancement),[2],~−850
same,^1H ε @ 9.4 T (1H SABRE signal enhancement),[3],~−60
c1cc[15n]cc1 [^15N—Py],^15N T1 9.4 T,[2],66.8(0.5) s
same,^15N effective T1 μT,[2],10.2 ± 1.1 s
same,^15N ε @ 9.4 T (SABRE-SHEATH signal enhancement),[2],~−33
same,^15N ε @ 9.4 T (SABRE-SHEATH signal enhancement),[2]; listed as 15N-Py,≈ 33
same,^1H ε @ 9.4 T (1H SABRE signal enhancement),[3],~−0.3
